According to article PMC4729957, “The Atg1–kinase complex tethers Atg9-vesicles to initiate autophagy” (Nature Communications, 2016):
No constants are given. Whether binding was seen depends on the method and setting.

Amino acid sequences for entries named in this document (tags omitted). A change or cut given only in a name is not applied to a line headed by its entry.
UniProt Q06628: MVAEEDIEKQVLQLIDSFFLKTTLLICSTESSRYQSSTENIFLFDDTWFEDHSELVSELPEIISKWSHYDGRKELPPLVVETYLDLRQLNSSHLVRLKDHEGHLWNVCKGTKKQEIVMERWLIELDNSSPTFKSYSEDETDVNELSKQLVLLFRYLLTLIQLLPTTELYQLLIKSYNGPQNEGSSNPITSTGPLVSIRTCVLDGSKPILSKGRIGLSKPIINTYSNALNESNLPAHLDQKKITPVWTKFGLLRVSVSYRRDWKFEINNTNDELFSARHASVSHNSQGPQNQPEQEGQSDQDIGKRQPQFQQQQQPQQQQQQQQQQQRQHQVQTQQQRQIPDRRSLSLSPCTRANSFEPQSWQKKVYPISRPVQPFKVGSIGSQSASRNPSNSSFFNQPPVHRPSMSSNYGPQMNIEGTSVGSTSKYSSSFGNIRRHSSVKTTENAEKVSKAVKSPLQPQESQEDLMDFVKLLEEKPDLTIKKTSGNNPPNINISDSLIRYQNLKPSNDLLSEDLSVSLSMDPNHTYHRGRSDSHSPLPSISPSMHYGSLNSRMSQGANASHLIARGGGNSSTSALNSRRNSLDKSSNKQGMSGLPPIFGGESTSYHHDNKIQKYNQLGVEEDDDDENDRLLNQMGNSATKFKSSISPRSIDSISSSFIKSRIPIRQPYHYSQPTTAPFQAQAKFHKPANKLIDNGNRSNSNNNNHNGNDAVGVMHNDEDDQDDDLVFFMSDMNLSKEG

Assays:
[1] = target: T1, Atg17–Atg31–Atg29 trimeric complex (Atg17^TC) (S. cerevisiae) (UniProt Q06410+Q12421+Q12092); assay: SEC; complexes assembled from purified subunits or subcomplexes, 30 min at room temperature, then gel filtration on Superose 6; both purified
T1 sequence 1: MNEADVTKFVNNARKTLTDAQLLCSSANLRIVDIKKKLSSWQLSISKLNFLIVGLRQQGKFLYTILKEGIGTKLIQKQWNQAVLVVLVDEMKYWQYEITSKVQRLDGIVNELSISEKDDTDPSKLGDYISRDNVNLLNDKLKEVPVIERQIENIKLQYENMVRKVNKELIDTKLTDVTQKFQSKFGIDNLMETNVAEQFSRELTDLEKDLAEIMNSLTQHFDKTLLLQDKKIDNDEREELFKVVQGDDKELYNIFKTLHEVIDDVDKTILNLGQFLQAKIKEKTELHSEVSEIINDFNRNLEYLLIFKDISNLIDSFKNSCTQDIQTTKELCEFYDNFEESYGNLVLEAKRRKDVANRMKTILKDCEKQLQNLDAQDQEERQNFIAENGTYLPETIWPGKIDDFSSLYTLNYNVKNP
T1 sequence 2: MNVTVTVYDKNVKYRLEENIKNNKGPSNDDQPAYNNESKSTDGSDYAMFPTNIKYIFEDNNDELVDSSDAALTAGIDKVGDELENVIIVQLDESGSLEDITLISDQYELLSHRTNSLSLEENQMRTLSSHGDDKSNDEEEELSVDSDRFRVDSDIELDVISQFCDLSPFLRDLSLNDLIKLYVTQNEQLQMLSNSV
T1 sequence 3: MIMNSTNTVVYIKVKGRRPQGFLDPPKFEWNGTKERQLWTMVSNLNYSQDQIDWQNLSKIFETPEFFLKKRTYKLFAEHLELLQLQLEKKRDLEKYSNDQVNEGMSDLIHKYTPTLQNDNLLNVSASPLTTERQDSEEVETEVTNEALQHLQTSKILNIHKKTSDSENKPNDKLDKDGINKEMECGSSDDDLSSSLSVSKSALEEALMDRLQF

[2] = target: monomeric Atg1^PC (Atg1^monoPC) (S. cerevisiae) (UniProt P53104+Q06628+Q06410+Q12421+Q12092); assay: as above
[3] = target: T2, Atg1 (S. cerevisiae), P53104; assay: SEC-MALS; Atg1 injected at 5 mg ml^−1, 50 μl, Superdex-200 Increase 10/300GL; both purified; details: remark: other sources report otherwise
T2 chain: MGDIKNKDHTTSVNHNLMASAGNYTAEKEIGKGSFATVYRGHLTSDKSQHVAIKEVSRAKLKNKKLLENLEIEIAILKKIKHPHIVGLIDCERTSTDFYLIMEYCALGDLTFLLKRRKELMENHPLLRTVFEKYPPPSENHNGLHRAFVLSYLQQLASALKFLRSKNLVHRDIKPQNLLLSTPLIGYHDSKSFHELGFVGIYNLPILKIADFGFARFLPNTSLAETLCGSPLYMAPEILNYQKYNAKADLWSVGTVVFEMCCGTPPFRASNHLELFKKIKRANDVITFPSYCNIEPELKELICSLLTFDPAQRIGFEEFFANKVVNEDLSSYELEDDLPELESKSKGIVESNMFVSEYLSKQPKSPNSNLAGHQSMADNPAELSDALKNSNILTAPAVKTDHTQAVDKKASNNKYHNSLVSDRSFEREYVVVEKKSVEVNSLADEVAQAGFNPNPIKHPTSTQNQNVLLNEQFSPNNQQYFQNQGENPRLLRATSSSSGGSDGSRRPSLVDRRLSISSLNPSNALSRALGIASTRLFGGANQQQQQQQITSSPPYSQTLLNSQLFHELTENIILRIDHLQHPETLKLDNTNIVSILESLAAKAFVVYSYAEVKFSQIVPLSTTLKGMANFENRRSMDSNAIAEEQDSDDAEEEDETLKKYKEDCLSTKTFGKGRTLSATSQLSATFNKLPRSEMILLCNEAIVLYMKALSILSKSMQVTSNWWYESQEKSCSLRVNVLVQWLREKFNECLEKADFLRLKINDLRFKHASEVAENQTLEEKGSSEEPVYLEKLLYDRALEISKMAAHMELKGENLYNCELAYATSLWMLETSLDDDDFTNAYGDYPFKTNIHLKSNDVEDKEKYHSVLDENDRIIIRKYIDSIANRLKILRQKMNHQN

[4] = target: Atg17^mono (Atg17^1–354) (S. cerevisiae) (UniProt Q06410); assay: dynamic light scattering; Stokes radii (RH) of the purified proteins and complexes in solution; both purified
[5] = target: Atg17^1–354-Atg31–Atg29 (Atg17^monoTC) (S. cerevisiae) (UniProt Q06410+Q12421+Q12092); assay: as above

For “Atg1–Atg13^SD subcomplex (from UniProt P53104 1-897; Q06628 1-738)”, the binding [1] was “no binding”.

With “monomeric Atg1^PC (Atg1^monoPC) (from UniProt P53104 1-897; Q06628 1-738; Q06410 1-354; Q12421 1-196; Q12092 1-213) (complex)” the binding [2] was “no binding”.

B1: Atg1, P53104 1-897 (enzyme)
chain: T2 chain
modifications: here or on the partner: phosphothreonine at 226 (T226); phosphothreonine at 226 (T226)
B1 was tested, and the binding [3] was “no binding (tested: 5 mg ml^−1)”.

B2: Atg17^mono (Atg17^1–354) (domain or fragment, UniProt Q06410 1-354)
chain: MNEADVTKFVNNARKTLTDAQLLCSSANLRIVDIKKKLSSWQLSISKLNFLIVGLRQQGKFLYTILKEGIGTKLIQKQWNQAVLVVLVDEMKYWQYEITSKVQRLDGIVNELSISEKDDTDPSKLGDYISRDNVNLLNDKLKEVPVIERQIENIKLQYENMVRKVNKELIDTKLTDVTQKFQSKFGIDNLMETNVAEQFSRELTDLEKDLAEIMNSLTQHFDKTLLLQDKKIDNDEREELFKVVQGDDKELYNIFKTLHEVIDDVDKTILNLGQFLQAKIKEKTELHSEVSEIINDFNRNLEYLLIFKDISNLIDSFKNSCTQDIQTTKELCEFYDNFEESYGNLVLEAKRRKD
For B2, the binding [4] was “no binding”.

B3: Atg17^1–354-Atg31–Atg29 (Atg17^monoTC) (complex, S. cerevisiae)
chain 1: B2 chain
chain 2: T1 sequence 2
chain 3: T1 sequence 3
notes: Atg31, S. cerevisiae BY4741; Atg29, S. cerevisiae BY4741; source: E. coli Rosetta, co-expressed from pST39, purified (Ni-NTA, SEC); not shown: His6, N-terminal, cleaved; copies: + +
With B3 the binding [5] was “no binding”.
